Assay results published in PubChem BioAssay AID2551 (National Center for Advancing Translational Sciences (NCATS), 2010).
The whole screen tested about 310,000 compounds, of which about 17,000 (5.5%) were called active. Inconclusive means that the source gave no clear call. Such entries were picked first, then a sample of the others. The call rests on the fitted dose curve; in most records, active means well fitted inhibition curve with a large enough effect; inconclusive means small, poorly fitted or top-dose-only effect, or effect the other way; inactive means no such curve, though single readings can be large or run the other way. Where the call is inconclusive, the potency comes from a doubtful curve fit.

Amino acid sequences for entries named in this document (tags omitted). A change or cut given only in a name is not applied to a line headed by its entry.
UniProt P51450: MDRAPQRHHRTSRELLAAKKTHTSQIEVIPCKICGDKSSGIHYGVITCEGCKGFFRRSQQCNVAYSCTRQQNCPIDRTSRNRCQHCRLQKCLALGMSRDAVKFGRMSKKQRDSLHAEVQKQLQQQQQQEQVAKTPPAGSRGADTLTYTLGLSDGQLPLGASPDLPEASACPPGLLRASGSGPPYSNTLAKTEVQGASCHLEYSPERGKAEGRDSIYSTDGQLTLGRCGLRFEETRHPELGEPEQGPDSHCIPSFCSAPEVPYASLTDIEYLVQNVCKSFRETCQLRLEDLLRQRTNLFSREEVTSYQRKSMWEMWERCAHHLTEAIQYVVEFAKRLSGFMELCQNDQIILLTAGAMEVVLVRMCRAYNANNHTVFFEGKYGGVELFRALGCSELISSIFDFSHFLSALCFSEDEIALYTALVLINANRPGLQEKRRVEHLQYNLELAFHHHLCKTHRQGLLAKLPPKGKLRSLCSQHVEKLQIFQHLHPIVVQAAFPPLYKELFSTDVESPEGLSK

target: Nuclear receptor ROR-gamma (Mus musculus) (UniProt P51450); assay: qHTS for inhibitors of ROR gamma transcriptional activity; settings: Drosophila S2 Gal4-RORgamma UAS-luciferase reporter, 20 h; activity change, negative = inhibition: at 53.6 µM (top of the series); further: nearly all actives have a fitted effect of over 60% in size
Outline: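 In this cell-based reporter format, copper sulfate (700 uM final) drives Gal4–ROR gamma fusion expression from a metallothionein promoter in Drosophila Schneider cells; compounds preincubated 1 hr, reporter read after 20 hr at ambient temperature.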
On the % scale 0 is the no-effect control and ±100 the full control effect; potency means the concentration at half of the fitted maximal effect.

Structure (SMILES)	activity change, negative = inhibition	Potency
O=S1(=O)CCC(N=Nc2c(O)n(Cc3ccccc3)c3ccccc23)C1 (stereo unspecified)	inactive: 39%	
CCCCC(CC)CCC(CC(C)C)OS(=O)(=O)O (stereo unspecified)	inactive: 17%	
Cc1c(Cl)cccc1NC(=S)NCCN1CCOCC1		inconclusive: 15.8 µM [inhibitor, single point]
O=C(CSc1nnc(-c2ccncc2)n1CC1CCCO1)Nc1cccc(O)c1 (stereo unspecified)		inconclusive: 25.1 µM [inhibitor, single point]
Cc1c(Cc2ccccc2)c(=O)oc2cc(OCc3nn[nH]n3)ccc12	inactive: 31.4%	
O=C(N/N=C/c1cccc(Br)c1)c1ccc(Br)cc1		inconclusive: 15.8 µM [inhibitor, single point]
CCC(C)/C=C/C1=CC2=C(Cl)C(=O)C3(C)OC(=O)C(C(=O)C(C)C(C)O)C3C2=CO1 (stereo unspecified)	inactive: 27.1%	
O=c1[nH]c(CSc2ncc(C(F)(F)F)cc2Cl)nc2ccccc12		inconclusive: 20 µM [activator, single point]
CCOc1ccc(CNC(c2ccccc2)c2ccccc2)cc1		inconclusive: 35.5 µM [activator, single point]
S=c1nc(-c2ccccc2)oc2c1CCCC2	inactive: -24.7%	
COc1cccc(-c2cc(C(F)(F)F)nc(N3CCC(C)CC3)n2)c1	inactive: -3.41%	
COc1cc2c(cc1OC)C(=S)NC(C)(C)C2		active: 20 µM
CCC(C)NC(=O)CN(C1CCCCC1)S(=O)(=O)c1ccc(F)cc1 (stereo unspecified)	inactive: -15.8%	
Cc1nc(NC(=O)C2CC2)sc1C		inconclusive: 17.8 µM [activator, partial curve]
CCCCN(CC)C(=S)Nc1ccc2nc(N3CCN(C)CC3)cc(C)c2c1		inconclusive: 35.5 µM [inhibitor, single point]
CCc1cc(-c2n[nH]c(=S)n2N)n(C)n1		inconclusive: 35.5 µM [inhibitor, single point]
Cc1ccc(N2CCN(S(=O)(=O)c3ccc4oc(=O)ccc4c3)CC2)cc1Cl	inactive: -27.9%	
CCCCCCCC(=O)N/N=C(\C)c1cccnc1		inconclusive: 3.55 µM [activator, single point]
Cc1ccc(NC(=O)c2cc3nc(C)cc(C)n3n2)cc1		active: 6.31 µM
Cc1nnc(SCC(=O)Nc2cccc(S(=O)(=O)N(C)c3ccccc3)c2)s1		inconclusive: 35.5 µM [inhibitor, single point]
COc1ccc(CCN(Cc2ccccn2)C(=S)Nc2ccccc2Cl)cc1OC		active: 10 µM
CN(C)c1nc(NCc2ccccc2)nc(N/N=C/c2ccccc2F)n1		active: 2.82 µM
COc1ccc(C(=O)OCC(=O)Nc2cccc(C(C)=O)c2)cc1OC		inconclusive: 35.5 µM [activator, single point]
NC(=O)c1ccsc1NC(=O)CCS(=O)(=O)c1ccccc1		inconclusive: 10 µM [activator, partial curve]
O=C(O)CCCNC(=O)OCc1ccccc1		inconclusive: 12.6 µM [inhibitor, partial curve]
CCc1ccc(/C=C/c2c([N+](=O)[O-])c(=O)n(C)c(=O)n2C)cc1		inconclusive: 14.1 µM [inhibitor, single point]

Looked up by structure from above:
Structure (SMILES)	activity change, negative = inhibition	Potency
CCC(C)/C=C/C1=CC2=C(Cl)C(=O)C3(C)OC(=O)C(C(=O)C(C)C(C)O)C3C2=CO1 (stereo unspecified)	inactive: 27.1%	
Cc1nc(NC(=O)C2CC2)sc1C		inconclusive: 17.8 µM [activator, partial curve]
Cc1c(Cl)cccc1NC(=S)NCCN1CCOCC1		inconclusive: 15.8 µM [inhibitor, single point]
CCc1cc(-c2n[nH]c(=S)n2N)n(C)n1		inconclusive: 35.5 µM [inhibitor, single point]

Following part:

Structure (SMILES)	activity change, negative = inhibition	Potency
COc1ccc(OC)c(NC(=O)CSc2nc3ccccc3c(=O)n2CCNC(C)=O)c1		inconclusive: 0.562 µM [activator, full curve, poor fit]
O=c1cc(N2CCc3ccccc32)[nH]c(=O)n1-c1ccc(Cl)cc1	inactive: 7.04%	
O=[N+]([O-])c1ccc(COc2cccc3cccnc23)cc1	inactive: 21.1%	
CCCCC(c1nnnn1C1CCCC1)N1CCN(C2CCCC2)CC1 (stereo unspecified)		inconclusive: 5.01 µM [inhibitor, single point]
COc1ccc(NS(=O)(=O)c2cc(N/C(=N\S(=O)(=O)c3ccccc3)c3ccc(F)cc3)ccc2Cl)cc1		inconclusive: 15.8 µM [activator, partial curve]
O=c1ccn(Cc2ccc(F)cc2)c2ccnc(C(F)(F)F)c12		inconclusive: 35.5 µM [activator, single point]
CC(CN)(NS(=O)(=O)c1ccccc1)c1ccccc1 (stereo unspecified)		inconclusive: 1.12 µM [inhibitor, partial curve]
O=C(CCCc1nc(-c2ccccc2)no1)NCc1cccnc1		inconclusive: 10 µM [inhibitor, single point]
COc1ccccc1-c1ccc(Nc2cccc(C(C)=O)c2)nn1		inconclusive: 3.98 µM [activator, full curve, poor fit]
O=C(NCC(=O)N1CCCCC1)c1ccc(Cl)cc1Cl		inconclusive: 1 µM [activator, full curve, poor fit]
CC(C)(C)c1ccc(C2(C)NC(=O)N(CC(=O)Nc3ccc4c(c3)OCO4)C2=O)cc1 (stereo unspecified)		inconclusive: 35.5 µM [activator, single point]
O=S(=O)(c1ccc(NC(=S)NN=C(Cc2ccccc2)Cc2ccccc2)cc1)N1CCOCC1		inconclusive: 20 µM [inhibitor, single point]
Fc1ccccc1NC(=S)N1CCN(C/C=C/c2ccccc2)CC1		inconclusive: 20 µM [inhibitor, single point]
O=C(NCC(c1cccnc1)N1CCN(c2ccccc2F)CC1)OCc1ccccc1 (stereo unspecified)	inactive: 12.6%	
Cc1ccc(-c2nc(CSCC(=O)N3CCN(C(=O)c4ccco4)CC3)c(C)o2)cc1		inconclusive: 5.01 µM [inhibitor, full curve, poor fit]
COc1cc(C(=O)Nc2ccc3c(c2)Cc2ccccc2-3)cc(OC)c1OC	inactive: -6.57%	
CN(c1ccccc1)S(=O)(=O)c1nnc(NC(=O)c2ccco2)s1		inconclusive: 11.2 µM [activator, single point]
COc1cccc(-c2nnc(SCC(=O)OC(C)C)n2Cc2ccco2)c1	inactive: -23%	
COc1ccccc1C(=O)NCCC(=O)Nc1ncccc1C		active: 5.62 µM
NS(=O)(=O)c1ccc(CNC(=S)Nc2ccc(F)c(Cl)c2)cc1	inactive: 41.9%	
COc1cc(OC)cc(C(=O)N2CCN(C(=O)c3ccc(-c4ccccc4)cc3)CC2)c1		active: 1.12 µM
Cc1cccc(Oc2ccc3c(c2)cc(C(=O)O)n3C)c1		inconclusive: 15.8 µM [activator, partial curve]
NNC(=O)c1ccccc1-n1cccc1		inconclusive: 3.55 µM [inhibitor, partial curve, poor fit]
Cc1ccc(NC(=O)c2cc(-c3cccs3)nc3ccccc23)nc1	inactive: -22.7%	
Oc1ccccc1/C=N/NC(=S)NC1CC2C=CC1C2 (stereo unspecified)		active: 3.16 µM
Cc1ccccc1NC(=S)NCCc1ccccn1		active: 15.8 µM

Structure (SMILES)	activity change, negative = inhibition	Potency
Cc1nc(CN2CCC(c3ccccc3)CC2)cc(=O)[nH]1	inactive: -9.7%	
COc1ccc(OC)c(NC(=S)N2CCc3ccccc3C2)c1		active: 17.8 µM
O=C(CSc1nnc2scc(-c3ccc(Cl)cc3)n12)NCc1ccc2c(c1)OCO2	inactive: -12.4%	
O=C(N/N=C/C=C\c1ccccc1[N+](=O)[O-])c1ccccn1		inconclusive: 35.5 µM [inhibitor, single point]
Cc1cc(C)cc(NC(=S)NCc2ccc(F)cc2)c1		active: 2.51 µM
Cc1ccc(C)c(NNC(N)=S)c1		inconclusive: 22.4 µM [inhibitor, single point]
Cc1[nH]nc(-c2ccc(OCc3cnn(-c4ccccc4)c3)cc2O)c1Oc1ccc(Cl)cc1		active: 2.24 µM
CC/C(=N\NC(=S)NC(C)C)c1ccc(OC(F)F)cc1		active: 0.562 µM
COc1ccccc1[C@@H]1C(c2ccccc2)=NN(c2ccc(Br)cc2)[C@H]1C(=O)N1CCOC1=O	inactive: -21.3% [at 40.7 µM]	
O=C1/C(=C\c2cccc([N+](=O)[O-])c2O)SC(=S)N1Cc1ccccc1	inactive: -63%	
COc1ccccc1CC(=O)NCC(c1ccco1)N1CCCCC1 (stereo unspecified)		inconclusive: 14.1 µM [inhibitor, single point]
CCn1cnc2cc(NCc3ccc(C)cc3)ccc21		inconclusive: 31.6 µM [inhibitor, single point]
O=C(N/N=C\c1ccco1)Nc1cccc(Cl)c1		inconclusive: 2.24 µM [activator, full curve]
O=C(CSc1nc2ccsc2c(=O)n1Cc1ccccc1)NCc1ccco1		inconclusive: 25.1 µM [activator, single point]
CCC1CCCCN1S(=O)(=O)c1ccc(C(=O)N(CCCN(C)C)c2nc3cc4c(cc3s2)OCO4)cc1 (stereo unspecified)		inconclusive: 35.5 µM [inhibitor, single point]
CCNC(=O)C1CC(=O)N(Cc2ccc3c(c2)OCO3)C(=Nc2ccc(F)cc2)S1 (stereo unspecified)	inactive: -26.9%	
CC(=O)c1cccc(CN2CCC(C(=O)Nc3cccc(-c4ccn[nH]4)c3)CC2)c1	inactive: 4.19%	
COCc1cc(C)nc2sc(C(=O)Nc3ccc(OC)cc3)c(N)c12		inconclusive: 6.31 µM [activator, partial curve]
Cc1ccc(/C=N/N2C(=O)C3C(C2=O)C2C=CC3C23CC3)o1 (stereo unspecified)		inconclusive: 4.47 µM [activator, full curve, poor fit]
CC(C)[C@H](NC(=O)[C@@H]1CSC2c3ccccc3C(=O)N21)C(=O)NCc1ccco1 (stereo partly specified)	inactive: -3.26%	
FC(F)(F)c1ccccc1NC(=S)Nc1cccc(Cl)c1		inconclusive: 35.5 µM [inhibitor, single point]
CCc1ccc(OCC(=O)Nc2ccc3oc(=O)ccc3c2)cc1	inactive: -1.28%	
CC(=O)OCC(=O)[C@@]12OC(C)(C)OC1CC1C3CC(F)C4=CC(=O)C=C[C@@]4(C)[C@@]3(F)C(O)C[C@]12C (stereo partly specified)	inactive: -6.49%	
O=C(CN1CCN(Cc2ccccc2)CC1)N/N=C/c1ccc(Br)s1		active: 5.62 µM
